Source: the supplement of paper PMC12593923
Where a name gives a salt, the structure may show the parent alone. Some well-known active drugs show little effect in this data set, so a weak value is uncertain.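 All three lines are high-grade serous ovarian cancer cells differing in chemosensitivity, with OVCAR3 described as the chemosensitive one. Toxicity was scaled between DMSO vehicle wells and fully lysed wells, the score derives from a fitted multi-dose response curve, and the authors counted a score above 5 as drug sensitivity.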

Key:
Assay in all cases: drug sensitivity score (DSS2, cytotoxicity, CellTox Green); higher = more cytotoxic / more sensitive; extreme values may be limits of the assay
Conditions in all cases: 72 h; doses 0.5, 1, 5 µM
OVCAR4 = tested on: OVCAR4
Kuramochi = tested on: Kuramochi
OVCAR3 = tested on: OVCAR3

Row | SMILES | drug sensitivity score (OVCAR4) | drug sensitivity score (Kuramochi) | drug sensitivity score (OVCAR3)
1 | CCc1c(Cl)c(O)c(Cl)c(O)c1C(=O)O[C@H]1[C@H](O)[C@H](OC)[C@H](OC/C2=C\C=C\C[C@H](O)/C(C)=C/[C@H](CC)[C@@H](O[C@@H]3OC(C)(C)[C@@H](OC(=O)C(C)C)[C@H](O)[C@@H]3O)/C(C)=C/C(C)=C/C[C@@H]([C@@H](C)O)OC2=O)O[C@@H]1C [Fidaxomicin] | 0 DSS | 0 DSS | 0 DSS
2 | COc1ccc(/C=C/c2nc(NCCCN(C)C)c3ccccc3n2)cc1 | 0 DSS | 0 DSS | 0 DSS
3 | C[C@@H]1CC[C@@]2(OC1)O[C@H]1C[C@H]3[C@@H]4CC=C5C[C@@H](O[C@@H]6O[C@H](CO)[C@@H](O[C@@H]7O[C@@H](C)[C@H](O)[C@@H](O)[C@H]7O)[C@H](O)[C@H]6O[C@@H]6O[C@@H](C)[C@H](O)[C@@H](O)[C@H]6O)CC[C@]5(C)[C@H]4CC[C@]3(C)[C@H]1[C@@H]2C [Dioscin] | 2.5 DSS | 2.1 DSS | 1.7 DSS
4 | CCOC(=O)C1=C(C)NC(C)=C(C(=O)OCC)C1c1ccccc1/C=C/C(=O)OC(C)(C)C [Lacidipine] | 0 DSS | 0 DSS | 0 DSS
5 | CN[C@H](CC(C)C)C(=O)N[C@H]1C(=O)N[C@@H](CC(N)=O)C(=O)N[C@H]2C(=O)N[C@H]3C(=O)N[C@H](C(=O)N[C@H](C(=O)O)c4cc(O)cc(O)c4-c4cc3ccc4O)[C@H](O)c3ccc(c(Cl)c3)Oc3cc2cc(c3O[C@@H]2O[C@H](CO)[C@@H](O)[C@H](O)[C@H]2O[C@H]2C[C@](C)(N)[C@H](O)[C@H](C)O2)Oc2ccc(cc2Cl)[C@H]1O [Vancomycin (hydrochloride)] | 0 DSS | 0 DSS | 0 DSS
6 | FC(F)(F)c1ccc(CNc2ccc(Cc3c[nH]c4ncc(Cl)cc34)cn2)cn1 [Pexidartinib] | 0 DSS | 0 DSS | 0 DSS
7 | O=NN(CCCl)C(=O)NC1CCCCC1 [Lomustine] | 0 DSS | 0 DSS | 0 DSS
8 | CC(C)OC(=O)C(C)(C)Oc1ccc(C(=O)c2ccc(Cl)cc2)cc1 [Fenofibrate] | 0 DSS | 0 DSS | 0 DSS
9 | OC[C@@H](O)[C@H](O)[C@@H](O)CO [Xylitol] | 0 DSS | 0 DSS | 0 DSS
10 | CC(O)(P(=O)(O)O)P(=O)(O)O [Etidronic acid] | 0 DSS | 0 DSS | 0 DSS
11 | CN(C)C(=O)c1cc2cnc(Nc3ccc(N4CCNCC4)cn3)nc2n1C1CCCC1 [Ribociclib hydrochloride] | 0 DSS | 0 DSS | 0 DSS
12 | CC(=O)[C@]1(O)Cc2c(O)c3c(c(O)c2[C@@H](O[C@H]2C[C@H](N)[C@H](O)[C@H](C)O2)C1)C(=O)c1ccccc1C3=O [Idarubicin (hydrochloride)] | 1 DSS | 0.4 DSS | 0.4 DSS
13 | CC(=O)c1c(C)c2cnc(Nc3ccc(N4CCNCC4)cn3)nc2n(C2CCCC2)c1=O [Palbociclib (monohydrochloride)] | 0 DSS | 0 DSS | 0 DSS
14 | CCn1c(=O)c(-c2cc(NC(=O)Nc3ccccc3)c(F)cc2Br)cc2cnc(NC)cc21 [Ripretinib] | 0 DSS | 0 DSS | 0 DSS
15 | C[C@H]1C[C@H]2[C@@H]3CCC4=CC(=O)C=C[C@]4(C)[C@@]3(F)[C@@H](O)C[C@]2(C)[C@@]1(O)C(=O)CO [Betamethasone] | 0 DSS | 0 DSS | 0 DSS
16 | COc1ccc2cc1Oc1ccc(cc1)C[C@H]1c3c(cc4c(c3Oc3cc5c(cc3OC)CCN(C)[C@@H]5C2)OCO4)CCN1C [Cepharanthine] | 0 DSS | 0 DSS | 0 DSS

Whole records from above:
CCn1c(=O)c(-c2cc(NC(=O)Nc3ccccc3)c(F)cc2Br)cc2cnc(NC)cc21 [Ripretinib] reads drug sensitivity score (OVCAR4): 0 DSS; drug sensitivity score (Kuramochi): 0 DSS; drug sensitivity score (OVCAR3): 0 DSS
CC(=O)c1c(C)c2cnc(Nc3ccc(N4CCNCC4)cn3)nc2n(C2CCCC2)c1=O [Palbociclib (monohydrochloride)] reads drug sensitivity score (OVCAR4): 0 DSS; drug sensitivity score (Kuramochi): 0 DSS; drug sensitivity score (OVCAR3): 0 DSS
